Measured values as given in the supplement of paper PMC4604168 (melanoma cell lines).
The other results are listed elsewhere or left out. Repeats are few or missing, and single values can be far off.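 The apoptosis fraction was the count of cleaved-PARP antibody-stained nuclei relative to all DNA-stained nuclei, imaged in 1,536-well plates. Screening doses were set so most cells survived, and baseline and induced cleaved-PARP levels vary greatly across cell lines.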

Legend:
Assay in all cases: cleaved PARP positive nuclei fraction relative to DMSO control; melanoma cells; higher = more apoptosis
Details in all cases: library dose: low library concentration; 72 h
[1] = tested on: MeWo
[2] = tested on: RPMI7951
[3] = tested on: RVH-421
[4] = tested on: SkMel28
[5] = tested on: SkMel2
[6] = tested on: SkMel30
[7] = tested on: SkMel5
[8] = tested on: UACC257
[9] = tested on: UACC62
[10] = tested on: WM115
[11] = tested on: WM1716
[12] = tested on: WM1745
[13] = tested on: WM3526
[14] = tested on: WM3619
[15] = tested on: WM451Lu
[16] = tested on: MZ2-MEL

SMILES | cleaved PARP positive nuclei fraction [1] | cleaved PARP positive nuclei fraction [2] | cleaved PARP positive nuclei fraction [3] | cleaved PARP positive nuclei fraction [4] | cleaved PARP positive nuclei fraction [5] | cleaved PARP positive nuclei fraction [6] | cleaved PARP positive nuclei fraction [7] | cleaved PARP positive nuclei fraction [8] | cleaved PARP positive nuclei fraction [9] | cleaved PARP positive nuclei fraction [10] | cleaved PARP positive nuclei fraction [11] | cleaved PARP positive nuclei fraction [12] | cleaved PARP positive nuclei fraction [13] | cleaved PARP positive nuclei fraction [14] | cleaved PARP positive nuclei fraction [15] | cleaved PARP positive nuclei fraction [16]
CCN(CC)CCNC(=O)c1c(C)[nH]c(/C=C2\C(=O)Nc3ccc(F)cc32)c1C [sunitinib] + O=C(O)C(=O)Nc1sc2c(c1C(=O)O)CCNC2 [TCS401] (first compound 0.4 µM, partner dose 1.66667 µM) | 94.3% | 70% | 125% | 82.2% | 152% | 35.3% | 71.3% | 44.5% | 113% | 147% | 191% | 113% | 32.2% | 99.5% | 69.6% | –
CN(c1ncccc1CNc1nc(Nc2ccc3c(c2)CC(=O)N3)ncc1C(F)(F)F)S(C)(=O)=O + CO[C@@H]1[C@H](N(C)C(=O)c2ccccc2)C[C@H]2O[C@]1(C)n1c3ccccc3c3c4c(c5c6ccccc6n2c5c31)C(=O)NC4 [Midostaurin] (first compound 0.08 µM, partner dose 0.08 µM) | 161% | 92.2% | 72.9% | 30.3% | 90.8% | 76% | 77.5% | 55.1% | 78% | 36.2% | 311% | 120% | 36.3% | 164% | 269% | –
CS(=O)(=O)c1ccc(C(=O)Nc2ccc(Cl)c(-c3ccccn3)c2)c(Cl)c1 [vismodegib] + CN(NC(=O)CC(=O)NN(C)C(=S)c1ccccc1)C(=S)c1ccccc1 [STA4783] (first compound 1 µM, partner dose 0.006 µM) | 36.3% | 79.1% | 182% | 25.4% | 95.7% | 242% | 130% | 92.6% | 222% | 58.3% | 98% | 231% | 262% | 161% | 59.3% | –
C[C@]1(O)C[C@@H](c2nc(-c3ccc4ccc(-c5ccccc5)nc4c3)c3c(N)nccn32)C1 + C[C@@H](Oc1cc(-c2cnn(C3CCNCC3)c2)cnc1N)c1c(Cl)ccc(F)c1Cl [Crizotinib] (first compound 0.4 µM, partner dose 0.2 µM) | 164% | 263% | 76.3% | 62.4% | – | 102% | – | – | 85.6% | 82% | 90.4% | 216% | 49.9% | 89.7% | 64.1% | 74.1%
CCCCCCCCc1ccc(CCC(N)(CO)CO)cc1 [fingolimod] + CO[C@H]1C[C@@H]2CC[C@@H](C)[C@@](O)(O2)C(=O)C(=O)N2CCCC[C@H]2C(=O)O[C@H]([C@H](C)C[C@@H]2CC[C@@H](OCCO)[C@H](OC)C2)CC(=O)[C@H](C)/C=C(\C)[C@@H](O)[C@@H](OC)C(=O)[C@H](C)C[C@H](C)/C=C/C=C/C=C/1C [everolimus] (first compound 2 µM, partner dose 0.02 µM) | 72.8% | 147% | 251% | 319% | – | 53.5% | – | – | 517% | 67.4% | 228% | 123% | 90.4% | 136% | 44.2% | 112%
C[C@]1(O)C[C@@H](c2nc(-c3ccc4ccc(-c5ccccc5)nc4c3)c3c(N)nccn32)C1 + COc1ccc(-c2ccc3c(N4CCOCC4)nc(N4C[C@@H](C)O[C@@H](C)C4)nc3n2)cc1CO [KU0063794] (first compound 0.4 µM, partner dose 0.02 µM) | 85.1% | 121% | 125% | 122% | 213% | 141% | 207% | 317% | 117% | 138% | 48.6% | 109% | 106% | 94.7% | 98.6% | –
CCCCCCCCc1ccc(CCC(N)(CO)CO)cc1 [fingolimod] + CNC(=O)c1cc(Oc2ccc(NC(=O)Nc3ccc(Cl)c(C(F)(F)F)c3)cc2)ccn1 [sorafenib] (first compound 2 µM, partner dose 0.4 µM) | 117% | 70.6% | 36.7% | 42.4% | – | 93.8% | – | – | 269% | 76.1% | 191% | 120% | 51% | 82.5% | 169% | 62.8%
Cn1cnc2c(F)c(Nc3ccc(Br)cc3Cl)c(C(=O)NOCCO)cc21 [selumetinib] + COc1cc(N2CCC(N3CCN(C)CC3)CC2)ccc1Nc1ncc(Cl)c(Nc2ccccc2S(=O)(=O)C(C)C)n1 [NVP-TAE684] (first compound 0.015 µM, partner dose 0.08 µM) | 74.6% | 58.1% | 61.8% | 367% | 99.5% | 65.1% | 78.9% | 178% | 282% | 346% | 80.7% | 76.6% | 71.5% | 105% | 37.1% | –
Cn1cnc2c(F)c(Nc3ccc(Br)cc3Cl)c(C(=O)NOCCO)cc21 [selumetinib] + COCC[n+]1c2c(n(Cc3cnccn3)c1C)C(=O)c1ccccc1C2=O [YM155] (first compound 0.015 µM, partner dose 0.0004 µM) | 111% | 43.1% | 182% | 46.9% | – | 127% | – | – | 139% | 127% | 36.5% | 86.2% | 49.1% | 113% | 56.5% | 219%
NC(=O)c1ccc(N(C(N)=O)c2c(F)cccc2F)nc1-c1ccc(F)cc1F + CC(=O)O[C@@]12CO[C@@H]1C[C@H](O)[C@@]1(C)C(=O)[C@H](O)C3=C(C)[C@@H](OC(=O)[C@H](O)[C@@H](NC(=O)OC(C)(C)C)c4ccccc4)C[C@@](O)([C@@H](OC(=O)c4ccccc4)[C@H]21)C3(C)C [Docetaxel] (first compound 0.4 µM, partner dose 0.0001 µM) | 445% | 842% | 121% | 276% | – | 278% | – | – | 663% | 111% | 54.7% | 158% | 182% | 144% | 177% | 218%
NC(=O)c1ccc(N(C(N)=O)c2c(F)cccc2F)nc1-c1ccc(F)cc1F + CC(C)CCN1c2nc(Nc3cc(F)c(O)c(F)c3)ncc2N(C)C(=O)C1C [BID1870] (first compound 0.4 µM, partner dose 0.2 µM) | 120% | 305% | 69.4% | 196% | – | 37.5% | 216% | 102% | 114% | 162% | 44.4% | 84.3% | 49.4% | 142% | 72.2% | –
Cn1sc(=O)n(Cc2ccccc2)c1=O + C=C(c1ccc(C(=O)O)cc1)c1cc2c(cc1C)C(C)(C)CCC2(C)C [Bexarotene] (first compound 0.4 µM, partner dose 2 µM) | 145% | 145% | 169% | 89.6% | 91.1% | 84.7% | – | – | 66.6% | 37.7% | 71% | 86.6% | 82.3% | 93.6% | 98% | –
C[C@]1(O)C[C@@H](c2nc(-c3ccc4ccc(-c5ccccc5)nc4c3)c3c(N)nccn32)C1 + Nc1nc(F)nc2c1ncn2[C@@H]1O[C@H](CO)[C@@H](O)[C@@H]1O [fludarabine] (first compound 0.4 µM, partner dose 0.2 µM) | 808% | 62.7% | 111% | 75% | – | 4220% | – | – | 277% | 60.9% | 68.5% | 133% | 154% | 108% | 199% | –
CCCCCCCCc1ccc(CCC(N)(CO)CO)cc1 [fingolimod] + CN(c1ncccc1CNc1nc(Nc2ccc3c(c2)CC(=O)N3)ncc1C(F)(F)F)S(C)(=O)=O [PF562271] (first compound 2 µM, partner dose 0.08 µM) | 167% | 186% | 54.1% | 109% | – | 25.3% | – | – | 145% | 268% | 23.8% | 147% | 87.5% | 124% | 103% | –
CN(c1ncccc1CNc1nc(Nc2ccc3c(c2)CC(=O)N3)ncc1C(F)(F)F)S(C)(=O)=O + COc1cc2c(Oc3ccc4[nH]c(C)cc4c3F)ncnc2cc1OCCCN1CCCC1 [cediranib] (first compound 0.08 µM, partner dose 0.4 µM) | 50.3% | 203% | 101% | 56.7% | – | 55.5% | 43.7% | 245% | 212% | 25.3% | 90.6% | 106% | 74.4% | 90.9% | 75.6% | –
NC(=O)c1ccc(N(C(N)=O)c2c(F)cccc2F)nc1-c1ccc(F)cc1F + CO[C@H]1C[C@@H]2CC[C@@H](C)[C@@](O)(O2)C(=O)C(=O)N2CCCC[C@H]2C(=O)O[C@H]([C@H](C)C[C@@H]2CC[C@@H](OCCO)[C@H](OC)C2)CC(=O)[C@H](C)/C=C(\C)[C@@H](O)[C@@H](OC)C(=O)[C@H](C)C[C@H](C)/C=C/C=C/C=C/1C [everolimus] (first compound 0.4 µM, partner dose 0.02 µM) | 180% | 59.8% | 211% | 444% | – | 136% | – | – | 392% | 129% | 76.4% | 115% | 107% | 120% | 99% | –
Cn1sc(=O)n(Cc2ccccc2)c1=O + C=CCNC1=C2C[C@@H](C)C[C@H](OC)[C@H](O)[C@@H](C)/C=C(\C)[C@H](OC(N)=O)[C@@H](OC)/C=C\C=C(/C)C(=O)NC(=CC1=O)C2=O [Tanespimycin] (first compound 0.4 µM, partner dose 0.002 µM) | 136% | 98% | 46.7% | 97.1% | – | 60.7% | – | – | 36.5% | 30.1% | 223% | 103% | 100% | 92.4% | 91.1% | –
CC1(C)CCC(c2ccc(Cl)cc2)=C(CN2CCN(c3ccc(C(=O)NS(=O)(=O)c4ccc(N[C@H](CCN5CCOCC5)CSc5ccccc5)c(S(=O)(=O)C(F)(F)F)c4)cc3)CC2)C1 + O=C(Nc1cccc(Cl)c1)Nc1ncc(CCNc2ncnc3ccsc23)s1 [SNS314] (first compound 0.4 µM, partner dose 0.0008 µM) | 62.2% | 213% | 81.2% | 172% | – | 77.4% | 194% | 116% | 211% | 80.6% | 245% | 742% | 136% | 128% | 132% | –

Retrieved one by one from above, 2 records:
SMILES | cleaved PARP positive nuclei fraction [1] | cleaved PARP positive nuclei fraction [2] | cleaved PARP positive nuclei fraction [3] | cleaved PARP positive nuclei fraction [4] | cleaved PARP positive nuclei fraction [5] | cleaved PARP positive nuclei fraction [6] | cleaved PARP positive nuclei fraction [7] | cleaved PARP positive nuclei fraction [8] | cleaved PARP positive nuclei fraction [9] | cleaved PARP positive nuclei fraction [10] | cleaved PARP positive nuclei fraction [11] | cleaved PARP positive nuclei fraction [12] | cleaved PARP positive nuclei fraction [13] | cleaved PARP positive nuclei fraction [14] | cleaved PARP positive nuclei fraction [15] | cleaved PARP positive nuclei fraction [16]
NC(=O)c1ccc(N(C(N)=O)c2c(F)cccc2F)nc1-c1ccc(F)cc1F + CC(C)CCN1c2nc(Nc3cc(F)c(O)c(F)c3)ncc2N(C)C(=O)C1C [BID1870] (first compound 0.4 µM, partner dose 0.2 µM) | 120% | 305% | 69.4% | 196% | – | 37.5% | 216% | 102% | 114% | 162% | 44.4% | 84.3% | 49.4% | 142% | 72.2% | –
C[C@]1(O)C[C@@H](c2nc(-c3ccc4ccc(-c5ccccc5)nc4c3)c3c(N)nccn32)C1 + Nc1nc(F)nc2c1ncn2[C@@H]1O[C@H](CO)[C@@H](O)[C@@H]1O [fludarabine] (first compound 0.4 µM, partner dose 0.2 µM) | 808% | 62.7% | 111% | 75% | – | 4220% | – | – | 277% | 60.9% | 68.5% | 133% | 154% | 108% | 199% | –
